The whole screen tested about 1,000 compounds, of which fewer than 10 were called active.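 The calls were made as follows: active = fitted half-maximal concentration no higher than twice the top valid tested dose, with signal falling; inconclusive = flat curve with 30 to 70% inhibition, or poor fit; inactive = the rest.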 The list shows a part of the results. Potency and affinity values are given separately.
Target: Golgi-associated PDZ and coiled-coil motif-containing protein (Homo sapiens) (UniProt Q9HD26)
Assay: CAL PDZ domain peptide-binding inhibitors, dose response, biochemical, fluorescence polarization, untagged CAL PDZ, cherry-pick, set 2 (AID 602254);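 also: 0% = DMSO neutral control and -100% = unlabeled peptide PRC23 positive control; more negative means stronger blocking of peptide binding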
Conditions: Purified CAL PDZ, TMR peptide fluorescence polarization; at 60 µM (top of the series)

Compound	activity change, negative = inhibition
O=C(Cn1c(=O)oc2cc(S(=O)(=O)N3CCCC3)ccc21)Nc1ccccc1Br	inactive: -0.669%
CC(C)C(=O)N1CCN(c2ccccc2NC(=O)c2cccc3ccccc23)CC1	inactive: 4.14%
COCCOc1cc2ncnc(N3CCC(C(=O)O)CC3)c2cc1OCCOC	inactive: 6.1%
CCCCOC(=O)c1ccc(NC(=O)C2CCCO2)cc1 (centres undefined)	inactive: -0.656%
CSc1ccccc1C(=O)NCCCn1ccnc1	inactive: -0.752%
O=C(COC(=O)c1ccccn1)Nc1ccc2c(c1)OCCO2	inactive: -2.11%
COCCNC(=O)C(=O)NCCN1CCNCC1	inactive: -3.25%
Cc1cc(C)n(C(=O)c2cccc(S(=O)(=O)N3CCOCC3)c2)n1	inactive: 0.568%
Cc1ccc2c(c1)N(CC(=O)Nc1ccccc1F)C(=O)CO2	inactive: 0.409%
COc1ccccc1C(=O)N/N=C(\C)CC(=O)Nc1ccc(Cl)cn1	inactive: -2.34%
COc1ccc(CCNS(=O)(=O)c2ccc3c(c2)OCCO3)cc1OC	inactive: -3.02%
COc1ccccc1N1CCN(C2CCCN(C(=O)c3cc(C4CC4)on3)C2)CC1 (centres undefined)	inactive: -0.75%
CC(NC(=O)c1cc(-c2ccncc2)nc2ccc(Br)cc12)C1CCCO1 (centres undefined)	inactive: -1.38%
COc1ccc(C(=O)C2CCN(C(=O)c3ccc(OC)cc3)CC2)cc1	inactive: 5.04%
COc1cc(CC(=O)NCC(C)(C)N2CCOCC2)cc(OC)c1OC	inactive: 1.26%
CC(=O)c1ccc(N2CCN(S(=O)(=O)c3ccc4c(c3)CC(C)N4C(=O)C3CC3)CC2)cc1 (centres undefined)	inactive: -0.545%
O=C(C=C1CCN(c2ncc(C(F)(F)F)cc2Cl)CC1)NNC(=O)Nc1ccc(Cl)cc1	inactive: -1.48%
COCC(=O)N1CCC(Oc2ccc(C(=O)NCCCn3cccn3)cc2)CC1	inactive: -1.01%
CC1CCC(NC(=O)CCN2C(=O)C3CC=CCC3C2=O)CC1 (centres undefined)	inactive: -1.4%
CC(C)(C)OC(=O)n1cc(C(=O)c2ccccc2O)cn1	inactive: 1.29%
CC(=O)c1cccc(NC(=O)c2cc(=O)c3ccccc3o2)c1	inactive: -1.19%
COC(=O)c1ccc(C(=O)Nc2ccc3nc(-c4ccncc4)[nH]c3c2)cc1	inactive: 1.34%
CN(C)S(=O)(=O)c1ccc(NC(=O)CN2CCCCCC2)cc1	inactive: 4.04%
COc1ccccc1NC(=O)Nc1nnc(Cc2ccc(F)cc2)s1	inactive: -17.4%

Compound	activity change, negative = inhibition
Cc1cc(Br)ccc1NC(=O)CN1CCN(c2ccccn2)CC1	inactive: 1.33%
CCOc1nc(OCC)nc(-n2cc(-c3ccccc3)nn2)n1	inactive: -3.83%
CC(C)(C)OC(=O)N1CCC(NC(=O)c2[nH]cnc2C(=O)Nc2cccc(Cl)c2)CC1	inactive: 0.132%
CSCCC(NS(=O)(=O)c1ccc(C)cc1)C(=O)N1CCCC1 (centres undefined)	inactive: 0.533%
COc1cc(S(=O)(=O)Nc2ccc(C(=O)NCC(=O)O)cc2)ccc1NC(C)=O	inactive: -0.599%
COc1cc(OC)cc(C(=O)NNC(=S)NC(=O)c2cccnc2)c1	inactive: -0.291%
CCc1ccc(CN(C)Cc2nc(COc3ccccc3)no2)nc1	inactive: 3.6%
Cc1cnc(NC(=O)c2ccccn2)s1	inactive: 0.893%
O=C(c1cc(COc2c(F)cccc2F)on1)N(Cc1ccccc1)CC1CC1	inactive: -0.792%
COC(=O)c1cc(S(=O)(=O)NCCN2CCN(c3ccccc3F)CC2)c[nH]1	inactive: 0.413%
CCOC(=O)c1sc2nc(CSc3ccccc3)[nH]c(=O)c2c1C	inactive: 1.59%
O=C1NC(=O)/C(=C\c2ccc(O)cc2O)S1	inactive: -2.27%
COc1ccc(NC(=O)n2ncc3c(C)cccc32)cc1	inactive: 2.29%
Cc1cc(=O)c(C(=O)O)nn1-c1cccc(C(F)(F)F)c1	inactive: 1.63%
NS(=O)(=O)c1cccc(NC(=O)COC(=O)CCC2CCCC2)c1	inactive: 0.176%
Cc1ccc(OCC(=O)N2CCN(C(=O)c3cccs3)CC2)cc1	inactive: 0.824%
O=C(N/N=C/c1cccnc1)c1[nH]ncc1Br	inactive: -2.47%
O=C(c1ccc(N2CCCC2=O)cc1)N1CCN(c2ccccc2F)CC1	inactive: -2.28%
O=C(COC(=O)c1cc(=O)[nH]c2ccccc12)Nc1cccc(S(=O)(=O)N2CCOCC2)c1	inactive: 10.7%
COc1ccccc1Nc1n[nH]c(=S)s1	inactive: 1.11%
CCOc1ccc(Cn2c(=O)sc3ccccc32)cc1OC	inactive: 0.621%
O=S(=O)(c1cccc(-c2n[nH]c(=S)o2)c1)N1CCOCC1	inactive: -0.742%
COc1ccc(Nc2nc(N3CCN(C)CC3)nc3ccccc23)c(OC)c1	inactive: -0.989%
COC(=O)c1ccc(S(=O)(=O)NCCc2ccccc2OC)n1C	inactive: -1.97%

Single entries from the list:
activity change, negative = inhibition with Cc1cc(Br)ccc1NC(=O)CN1CCN(c2ccccn2)CC1 is entered as inactive: 1.33%
activity change, negative = inhibition with CCOC(=O)c1sc2nc(CSc3ccccc3)[nH]c(=O)c2c1C is entered as inactive: 1.59%
activity change, negative = inhibition with CC(C)(C)OC(=O)N1CCC(NC(=O)c2[nH]cnc2C(=O)Nc2cccc(Cl)c2)CC1 is entered as inactive: 0.132%
activity change, negative = inhibition with COc1ccc(Nc2nc(N3CCN(C)CC3)nc3ccccc23)c(OC)c1 is entered as inactive: -0.989%
activity change, negative = inhibition with COc1ccccc1Nc1n[nH]c(=S)s1 is entered as inactive: 1.11%

(cont.)

Compound	activity change, negative = inhibition
COc1ccc(N2C(=O)CCC(C(=O)N3CCCCC3)C2c2ccc(F)cc2)cc1 (centres undefined)	inactive: 0.905%
O=C(CCc1ccccc1F)N1CCN(c2ccc(C(F)(F)F)cn2)CC1	inactive: 0.287%
COc1cc(SC)ccc1C(=O)OC(C)C(=O)Nc1ccc(NC(C)=O)cc1 (centres undefined)	inactive: 1.9%
COC(=O)c1ccc(NC(=O)c2ccc(NC(=O)C3CCCO3)cc2)cc1 (centres undefined)	inactive: 1.55%
COc1cccc(CN2CC(C(=O)NCCc3ccccc3C(F)(F)F)CCC2=O)c1 (centres undefined)	inactive: 0.507%
Cc1ccnc2nc(C(=O)NCc3ccccc3)nn12	inactive: 1.22%
Cc1c(C)n(Cc2ccc(F)cc2)c2ccc(C(=O)NCCN3CCOCC3)cc12	inactive: -1.37%
CC(C1CC1)N(Cc1ccccc1)C(=S)Nc1ccccc1Cl (centres undefined)	inactive: 0.214%
Cc1cc(CN(C)C(=O)c2cc(COc3ccc4ncccc4c3)on2)on1	inactive: -10.6%
COCCCNC1CS(=O)(=O)CC1O (centres undefined)	inactive: -0.331%
NC(=O)c1ccc(NC(=O)C2CCCO2)cc1 (centres undefined)	inactive: -5.94%
COc1ccccc1CC(NC(C)=O)C(=O)NC1CCN(C(=O)Nc2ccccc2Cl)CC1 (centres undefined)	inactive: -0.247%
CCNC(=O)c1ccccc1NC(=O)C1CC(=O)N(C(C)C)C1 (centres undefined)	inactive: 2.07%
CC(Oc1ccc(Cl)cc1C(N)=O)C(=O)N1CCc2ccccc21 (centres undefined)	inactive: -0.08%
Cc1nc(N)[nH]c(=O)c1Oc1cccc(C(F)(F)F)c1	inactive: 1.66%
CCN(CC)S(=O)(=O)c1ccc(N2CCc3cc(OC)c(OC)cc3C2)nc1	inactive: 5.3%
CC1CC(C)CN(CCCNS(=O)(=O)c2ccc3c(c2)CCN3C(=O)C2CC2)C1 (centres undefined)	inactive: -2.92%
Cc1ccc(C)c(N(CC(=O)N2CCCC2)S(C)(=O)=O)c1	inactive: 6.46%
O=C(Nc1cccnc1)c1cc(-c2ccc(Br)cc2)nc2ccccc12	inactive: 2.59%
Cc1cccc(NC(=S)NCc2ccc3c(c2)OCO3)c1C	inactive: 8.22%
COc1cccc(C(=O)COC(=O)c2ccc(NC(C)=O)cc2)c1	inactive: -1.68%
CCn1cc(C(=O)N[C@H](C(=O)O)C(C)C)c(=O)c2cc3c(cc21)OCO3	inactive: 3.8%
CCCCN1CC(C)(C)Oc2cccc(F)c2S1(=O)=O	inactive: 2.05%
Cc1cnc(NC(=O)NCC2CCCC(CNC(=O)Nc3ncc(C)s3)C2)s1 (centres undefined)	inactive: -0.336%

Compound	activity change, negative = inhibition
COc1cc2c(cc1OC)C(c1ccc(Br)cc1)CC(=O)N2 (centres undefined)	inactive: 2.27%
C/C(=N\OC(=O)c1cccc(C(F)(F)F)c1)c1sc(-c2ccccc2)nc1C	inactive: -4.29%
CCc1ccccc1NC(=O)c1cnn(-c2ccccc2)c1C	inactive: 6.77%
COc1ccc(/C=N/N2CCN(Cc3ccc(C)cc3)CC2)cc1Br	inactive: 1.63%
Cc1ccc(Cn2c(=O)n(CCC(=O)NCc3ccc4c(c3)OCO4)c(=O)c3ccccc32)cc1	inactive: -1.22%
Cc1[nH]c2ccccc2c1C(=O)C(=O)NCCOc1ccccc1	inactive: 4.7%
CCN(CC)S(=O)(=O)c1ccc(O)c(NC(=O)CN2CCc3ccccc3C2)c1	inactive: -0.945%
CCN(CC)CC(=O)NCC1(c2ccccc2)CCOCC1	inactive: -1.4%
CN(Cc1nc2ccccc2c(=O)[nH]1)C(=O)c1cccc(NC(=O)c2cccs2)c1	inactive: -0.333%
Cc1cccc(N2CCN(C(=O)c3cccc(S(=O)(=O)N4CCCCC4)c3)CC2)c1C	inactive: -0.092%
Cc1cccc(C)c1NC(=S)NC(C)(C)CO	inactive: 1.29%
O=C(Nc1ccccc1C(=O)O)c1ccc(NC(=O)C2CCCO2)cc1 (centres undefined)	inactive: 3.45%
Cc1onc(-c2c(Cl)cccc2Cl)c1C(O)c1ccccc1 (centres undefined)	inactive: 2.44%
CC(=O)c1cccc(CN2CCN(CCc3ccccc3)C(CCO)C2)c1 (centres undefined)	inactive: -2.82%
Cc1c(C(=O)N2CCCCCC2)nnn1-c1nonc1N	inactive: 0.528%
COc1ccc(S(=O)(=O)N2CCC[C@H]2C(=O)NCc2ccc(Cl)cc2)cc1	inactive: 1.15%
Cc1cc(C)cc(-n2ncc3c2CCCC3NC(=O)C2CCC2)c1 (centres undefined)	inactive: -1.74%
CCOc1c(C)cc(S(=O)(=O)NCc2ccccn2)c(C)c1C	inactive: 0.83%
C=CCc1ccc(OCCCCN2CC(C)OC(C)C2)c(OC)c1 (centres undefined)	inactive: 0.21%
CCOc1ccc(CCNC(=O)CCNS(=O)(=O)c2ccc3c(c2)CCN3C(C)=O)cc1OCC	inactive: 0.309%
O=C(Nc1ccc(O)cc1)c1ccc(NC(=O)C2CCCO2)cc1 (centres undefined)	inactive: -1.49%
Cc1ccc2cc(C(c3nnnn3Cc3ccccc3)N3CCc4ccccc43)c(=O)[nH]c2c1C (centres undefined)	inactive: -2.21%
